Test results taken from doi:10.1101/2024.02.16.580630.
Substitutions are numbered along the chain they refer to. These are yes or no findings as the source states them, for the method shown. Binding seen in cells or lysates may run through a third protein. Some binding calls cover weakened binding; strength is not graded here. For part of these data: Tags and fused reporters may be left off the sequences shown. Values belong to the molecule of their own block, whether it stands above or below them.

Protein sequences, listed by entry. Tags and fused reporters are not part of them. Lines headed by an entry give the natural chain unless they say otherwise; changes in a name come on top.
UniProt P53350, whole entry: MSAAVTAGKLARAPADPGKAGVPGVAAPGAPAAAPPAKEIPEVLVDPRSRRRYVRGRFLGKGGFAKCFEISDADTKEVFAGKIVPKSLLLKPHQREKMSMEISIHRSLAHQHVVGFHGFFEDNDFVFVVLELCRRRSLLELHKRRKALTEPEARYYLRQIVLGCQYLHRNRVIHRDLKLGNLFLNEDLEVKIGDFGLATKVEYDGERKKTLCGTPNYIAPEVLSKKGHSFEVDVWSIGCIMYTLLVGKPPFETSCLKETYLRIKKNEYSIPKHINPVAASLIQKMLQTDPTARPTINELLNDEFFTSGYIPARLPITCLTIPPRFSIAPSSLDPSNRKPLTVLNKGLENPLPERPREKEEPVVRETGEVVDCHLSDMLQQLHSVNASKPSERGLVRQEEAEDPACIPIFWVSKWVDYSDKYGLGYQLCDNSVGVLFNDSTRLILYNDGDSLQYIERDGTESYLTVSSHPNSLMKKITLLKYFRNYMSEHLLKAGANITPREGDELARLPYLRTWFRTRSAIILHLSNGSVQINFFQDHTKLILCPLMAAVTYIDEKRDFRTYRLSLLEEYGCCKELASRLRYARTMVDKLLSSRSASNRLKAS

Assays:
Test in all cases: co-IP
[1] = molecular target: T1, tdTomato-PDHA1 (pyruvate dehydrogenase E1 subunit alpha 1) (UniProt P08559)
T1 sequence: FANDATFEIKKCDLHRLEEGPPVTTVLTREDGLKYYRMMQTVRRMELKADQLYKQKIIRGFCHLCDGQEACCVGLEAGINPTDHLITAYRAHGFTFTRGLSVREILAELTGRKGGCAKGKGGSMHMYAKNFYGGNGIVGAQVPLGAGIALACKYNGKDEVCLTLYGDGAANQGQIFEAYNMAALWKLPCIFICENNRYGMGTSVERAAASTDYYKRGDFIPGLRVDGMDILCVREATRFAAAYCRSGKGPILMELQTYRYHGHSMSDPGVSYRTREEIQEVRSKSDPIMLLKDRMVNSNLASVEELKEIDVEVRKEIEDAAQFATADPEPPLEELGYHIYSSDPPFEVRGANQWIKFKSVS

[2] = molecular target: T2, HA-PDHA1 wild type (UniProt P08559)
T2 sequence: T1 sequence

[3] = molecular target: T3, HA-PDHA1-T57A (UniProt P08559)
T3 sequence: T1 sequence with T28A

binding [1]: binds
Molecule: Flag-PLK1 (polo-like kinase 1) (from UniProt P53350 1-603)

binding [2]: binds
binding [3]: binds
B1: endogenous PDHB of CrT cells (regulatory subunit of the E1 component of the pyruvate dehydrogenase complex) (protein, UniProt P11177 31-359)
chain: LQVTVRDAINQGMDEELERDEKVFLLGEEVAQYDGAYKVSRGLWKKYGDKRIIDTPISEMGFAGIAVGAAMAGLRPICEFMTFNFSMQAIDQVINSAAKTYYMSGGLQPVPIVFRGPNGASAGVAAQHSQCFAAWYGHCPGLKVVSPWNSEDAKGLIKSAIRDNNPVVVLENELMYGVPFEFPPEAQSKDFLIPIGKAKIERQGTHITVVSHSRPVGHCLEAAAVLSKEGVECEVINMRTIRPMDMETIEASVMKTNHLVTVEGGWPQFGVGAEICARIMEGPAFNFLDAPAVRVTGADVPMPYAKILEDNSIPQVKDIIFAIKKTLNI
